Reference: PubChem BioAssay AID504467 (National Center for Advancing Translational Sciences (NCATS), 2011)
The whole screen tested about 330,000 compounds, of which about 7,700 (2.3%) were called active. The shares of active, inactive and inconclusive entries below differ from those in the screen. The call rests on the fitted dose curve; in most records, active means well fitted inhibition curve with a large enough effect; inconclusive means small, poorly fitted or top-dose-only effect, or effect the other way; inactive means flat fitted curve, though single readings scatter. Potencies of inconclusive entries are doubtful fits and often do not repeat.

test: qHTS screen for small molecules that inhibit ELG1-dependent DNA repair in human embryonic kidney (HEK293T) cells expressing luciferase-tagged ELG1; conditions: HEK293T ELG1-luciferase reporter, luminescence, 16 h, DNA damage induced by 5-fluorouridine; activity change, negative = inhibition: at 46.1 µM (top of the series); further: nearly all actives have a fitted effect of over 55% in size
Method in brief: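 Reporter activity after DNA damage by 5-fluorouridine is monitored. Compound-treated cells incubate 16 hr at 37 °C, then ONE-Glo is added for 30 min before luminescence reading.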
On the % scale 0 is the no-effect control and ±100 the full control effect; potency means the concentration at half of the fitted maximal effect.

SMILES | Potency | activity change, negative = inhibition
COc1ccccc1NC(=O)Cn1cnc2sc(C(=O)Nc3cc(OC)c(OC)c(OC)c3)c(C)c2c1=O | active: 8.2 µM | 
O=C(Nc1ccc(Cl)cn1)C1CCCN1S(=O)(=O)c1cccc2ccccc12 (stereo not given) | inconclusive: 29.1 µM [inhibitor, single point] | 
C=CCN1CC(c2nc3ccccc3n2Cc2ccccc2)CC1=O (stereo not given) |  | inactive: 13.2%
C/C(=N\Nc1nc(C)cc(-c2ccccc2)n1)c1cccc(N)c1 | inconclusive: 29.1 µM [inhibitor, single point] | 
Cc1ccnc(NC(=O)CCS(=O)(=O)c2ccccc2)c1 | inconclusive: 20.6 µM [activator, partial curve] | 
CC(C)(C)NCCOCCOc1ccc(Cl)cc1C(C)(C)C |  | inactive: -3.57%
Cc1cccc(OCc2nc(C#N)c(NCCN(C)C)o2)c1 | inconclusive: 25.9 µM [activator, single point] | 
O=c1cc(N2CCc3ccccc3C2)[nH]c(=O)n1-c1ccc(Cl)cc1 | inconclusive: 10 µM [activator, partial curve, poor fit] | 
COc1ccc(C/C(N)=N/OC(=O)Cc2ccccc2)cc1OC | inconclusive: 1.3 µM [activator, partial curve, poor fit] | 
O=S(=O)(Nc1cccc2c1CCCC2)c1ccc(Cl)cc1 |  | inactive: -1.47%
O=C(CCn1cncn1)N1CCCC(N2CCN(c3cccc(C(F)(F)F)c3)CC2)C1 (stereo not given) | inconclusive: 0.13 µM [inhibitor, full curve] | 
Cc1ccc(C(=O)N/N=C/c2nc3ccccc3n2C)cc1 | inconclusive: 23.1 µM [activator, single point] | 
O=C(Nc1cccc(Br)c1)c1ccc2c(c1)SC1=NS(=O)(=O)CCN12 | inconclusive: 23.1 µM [inhibitor, partial curve, poor fit] | 
CN(c1ccccc1)c1nc(N)c([N+](=O)[O-])c(N2CCCC2)n1 | inconclusive: 14.6 µM [activator, partial curve] | 
COCCCNC(=S)NC1CC2CCCC(C1)N2Cc1cccs1 (stereo not given) |  | inactive: 1.71%
COc1ccccc1NC(=O)c1cc(Br)ccc1Cl |  | inactive: -6.55%
Cc1ccc2cc3c(N)c4c(C)ccc(C)c4nc3nc2c1 |  | inactive: 24.6%
CCOC(=O)Cc1csc(NC(=O)CSc2nnnn2-c2ccc(C)cc2C)n1 |  | inactive: -4.89%
COc1ccc(C2(C)NC(=O)N(CC(=O)Nc3ccc4ccccc4c3)C2=O)cc1OC (stereo not given) | inconclusive: 18.3 µM [inhibitor, single point] | 
Cc1cc(NC(=O)CSc2nnc(-c3ccccc3)o2)no1 | inconclusive: 16.4 µM [activator, partial curve] | 
CC(C)(C)c1ccc(NC(=O)CC2(C(F)(F)F)OCCO2)cc1 | inconclusive: 14.6 µM [activator, partial curve] | 
O=C(Oc1ccc2c(c1)OCO2)c1cccs1 |  | inactive: 12.8%
O=C(COC(=O)/C=C/c1cn(-c2ccccc2)nc1-c1ccc2c(c1)OCCO2)NC1CCS(=O)(=O)C1 (stereo not given) | active: 18.3 µM | 
c1ccc(CC2CCN(c3ncnc4sccc34)CC2)cc1 | active: 1.64 µM | 

SMILES | Potency | activity change, negative = inhibition
O=C(Nc1ccc(F)cc1)c1ccc(C(=O)N2CCCC(O)C2)cc1 (stereo not given) |  | inactive: 22.8%
Cc1ccc(SCc2ccc(C(=O)Nc3ccccc3C(=O)NC(C)C)cc2)cc1 |  | inactive: 9.44%
CCOC(=O)c1ccc(N=Cc2nc3ccccc3n2C)cc1 | inconclusive: 29.1 µM [activator, single point] | 
CCCCCCN1Cc2ccccc2C1 |  | inactive: -0.96%
Cc1c(C(=O)Nc2ccccc2[N+](=O)[O-])csc1-c1ccccc1 | inconclusive: 5.17 µM [activator, partial curve] | 
COc1ccc(CNC(=O)Cc2cccs2)cc1OC | inconclusive: 9.2 µM [activator, partial curve] | 
Cn1c(SCC(=O)c2ccccc2)nnc1-c1ccc(O)cc1 | inconclusive: 25.9 µM [activator, single point] | 
O=C(NCc1ccc2c(c1)OCO2)c1sccc1Br | inconclusive: 11.6 µM [activator, partial curve, poor fit] | 
COc1ccc(NC(=O)CSc2nc(SC)ns2)c(OC)c1 | inconclusive: 20.6 µM [activator, partial curve] | 
CCOC(=O)c1cn(Cc2ccc(C)cc2)c2cc(F)ccc2c1=O | inconclusive: 29.1 µM [inhibitor, single point] | 
C[C@@H]1C(c2ccccc2)=NN(c2ccccc2)[C@H]1C(=O)N1CCOC1=O |  | inactive: -0.775%
CCOC(=O)C1=CN(Cc2cccc(-c3ccc4c(c3)OCO4)c2)S(=O)(=O)N(C)C1C (stereo not given) | inconclusive: 32.6 µM [inhibitor, single point] | 
Cc1ccc(Cl)c(NC(=O)CN(C)CC(=O)Nc2ccc(F)c(F)c2F)c1Cl | inconclusive: 6.51 µM [inhibitor, single point] | 
CCc1ccc(CNC(=O)C2CCCN(c3nnc(C)c4c(C)n(-c5ccccc5)nc34)C2)cc1 (stereo not given) | active: 20.6 µM | 
CN(C)S(=O)(=O)c1cccc(C(=O)NCC(=O)NC2CCN(Cc3ccccc3)CC2)c1 |  | inactive: 5.07%
COc1cc(C)ccc1NC(=O)c1ccc(S(=O)(=O)N2CCOCC2)cc1 |  | inactive: -8.44%
CC(C)(C)c1ccc(O)c(N=Cc2cc3c(cc2[N+](=O)[O-])OCO3)c1 | inconclusive: 1.26 µM [activator, single point] | 
COc1ccc(C(=O)NC(=S)Nc2cc(C)ccn2)cc1[N+](=O)[O-] | inconclusive: 16.4 µM [activator, partial curve] | 
COCCN(CCOC)C(=O)COC(=O)c1cc([N+](=O)[O-])ccc1Cl |  | inactive: 5.44%
O=C(c1cnc(N2CCN(c3ncccn3)CC2)c2ccccc12)N1CCN(c2ncccn2)CC1 | inconclusive: 29.1 µM [inhibitor, single point] | 
Cc1cccc(N2CCN(C(=O)c3ccc(S(=O)(=O)N(C)c4ccccc4)cc3)CC2)c1C | inconclusive: 6.51 µM [inhibitor, partial curve] | 
CCOc1cc(N2CCOCC2)c(OCC)cc1NC(=O)c1cc(C)cc(C)c1 | inconclusive: 18.3 µM [inhibitor, single point] | 
O=C(c1ccc(F)cc1)C1CCN(C(=O)NCc2ccccc2)CC1 | inconclusive: 23.1 µM [inhibitor, single point] | 
O=C(c1cc2cc(Br)cc(Br)c2oc1=O)N1CCCc2ccccc21 |  | inactive: 1.46%

Some of these compounds in order of formula weight, largest number first.
SMILES | Potency | activity change, negative = inhibition
CCc1ccc(CNC(=O)C2CCCN(c3nnc(C)c4c(C)n(-c5ccccc5)nc34)C2)cc1 (stereo not given) | active: 20.6 µM | 
CCOc1cc(N2CCOCC2)c(OCC)cc1NC(=O)c1cc(C)cc(C)c1 | inconclusive: 18.3 µM [inhibitor, single point] | 
C[C@@H]1C(c2ccccc2)=NN(c2ccccc2)[C@H]1C(=O)N1CCOC1=O |  | inactive: -0.775%
COc1ccc(CNC(=O)Cc2cccs2)cc1OC | inconclusive: 9.2 µM [activator, partial curve] | 
CCCCCCN1Cc2ccccc2C1 |  | inactive: -0.96%

(list continues)

SMILES | Potency | activity change, negative = inhibition
Cc1ccc(NC(=O)C2CCN(S(=O)(=O)c3ccc4c(c3)NC(=O)C(C)S4)CC2)cc1C (stereo not given) | inconclusive: 32.6 µM [inhibitor, single point] | 
CCOCCCNC(=O)c1cc(=O)n(Cc2cccc(C)c2)c2ccccc12 | active: 16.4 µM | 
Cc1nn(C(C)C(=O)c2cccc(Cl)c2)c(C)c1[N+](=O)[O-] (stereo not given) |  | inactive: 1.78%
Cc1cccc(-n2c(SCc3ccc(C#N)cc3)nnc2-c2c[nH]c3ccccc23)c1 | inconclusive: 29.1 µM [inhibitor, single point] | 
COc1ccc(-c2cc(C(F)(F)F)nc(SCC(=O)NCCCN3CCOCC3)n2)cc1 | inconclusive: 29.1 µM [inhibitor, single point] | 
COc1ccc(C(=O)NCc2nnc(SCC(=O)N3CCCC3)o2)cc1 |  | inactive: 7.54%
Cc1ccc(OC(C)C(=O)N2CCCc3ccccc32)cc1 (stereo not given) |  | inactive: 7.66%
O=C(Nc1cccc(-c2csc(Nc3cccc(C(F)(F)F)c3)n2)c1)c1cc([N+](=O)[O-])cc(C(F)(F)F)c1 | active: 2.59 µM | 
COc1cc(-c2oc3cc(O)cc(O)c3c(=O)c2O[C@@H]2O[C@H](COC3O[C@@H](C)[C@H](O)[C@@H](O)[C@H]3O)[C@@H](O)[C@H](O)[C@H]2O)ccc1O (stereo not given in full) | inconclusive: 20.6 µM [activator, single point] | 
Cc1cc(NCCCn2ccnc2)n2ncc(-c3ccccc3)c2n1 | inconclusive: 0.291 µM [activator, partial curve, poor fit] | 
O=C(Nc1ccccc1Cl)C(=O)c1cn(CC(=O)N2CCOCC2)c2ccccc12 | inconclusive: 5.17 µM [activator, partial curve] | 
O=C(Nc1cccc2ccccc12)c1onc2c1CCCC2 | inconclusive: 13 µM [activator, partial curve] | 
Cc1ccc(-n2c(-c3ccc(Br)cc3)c[n+]3c2CCc2ccc4cccnc4c2-3)cc1 | inconclusive: 10 µM [inhibitor, partial curve, poor fit] | 
C(=N\Nc1nc(Nc2ccccc2)nc(N2CCCCC2)n1)/c1ccco1 | inconclusive: 29.1 µM [inhibitor, single point] | 
CCN1CCN(CC(O)COc2ccc(C(C)=O)cc2)CC1 (stereo not given) | inconclusive: 5.8 µM [activator, partial curve, poor fit] | 
Cc1cc2n(c(=O)c1C#N)CCCN2c1cccc(Cl)c1 | inconclusive: 20.6 µM [inhibitor, single point] | 
COc1ccc(-c2cc(C(=O)N3CCN(c4ccc(F)cc4)CC3)no2)cc1 | inconclusive: 25.9 µM [inhibitor, single point] | 
CN1CCN(CC(=O)Nc2c(C(=O)c3ccccc3)oc3ccccc23)CC1 |  | inactive: -3.52%
CCOC(=O)c1oc2ccccc2c1NC(=O)c1ccccc1OC | inconclusive: 20.6 µM [inhibitor, single point] | 
O=C1CCCc2nc3c(cc21)C(O)Oc1ccccc1-3 (stereo not given) | inconclusive: 29.1 µM [inhibitor, single point] | 
C=CCOc1ccc(CNc2nccs2)cc1 | inconclusive: 29.1 µM [activator, single point] | 
CC(=O)N1N=C(c2ccc(C)cc2)OC1c1ccc(Br)cc1 (stereo not given) |  | inactive: 4.09%
